PubChem BioAssay AID504786 | Drosophila RNAi Screening Center | 2011

Aim: 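Knock-downs reducing HIF reporter induction by the iron chelator DFO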 (primary screen)
Cells: Drosophila S2 cells with a stable HIF luciferase reporter
Reagents: long dsRNA against Drosophila genes, about 0.2 µg dsRNA per well of a 384-well plate
Time to read-out: three days of knock-down, then 20 h of DFO before reading
Conditions: desferrioxamine (DFO) at 100 µM, an iron chelator that mimics hypoxia, for 20 h
Measured: 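Firefly luciferase driven by the mouse ldh-a hypoxia-response element, measured after 20 h of 100 µM DFO; z-scores per plate, higher means more signal lost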
Scale: z-score: higher = stronger loss of HIF reporter signal
The deposit covers about 21,000 reagents; this is an unselected part of those that have a named target and a result. 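Primary screen; positive scores mean lost reporter signal, so the sign may be inverted from the usual convention.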 Names joined by + are all predicted targets of the reagent. Not all columns of the deposit are shown.

| Gene | amplicon | z-score, replicate 1 | z-score, replicate 2 | z-score, replicate 3 |
| --- | --- | --- | --- | --- |
| CG13220 | DRSC06342 | -0.1 | -0.1 | – |
| Ppox (Protoporphyrinogen oxidase) | DRSC17033 | -0.4 | 0 | – |
| CG13041 | DRSC09922 | -0.2 | -0.8 | – |
| Rbf (Retinoblastoma-family protein) | DRSC18704 | 0.1 | 0.6 | – |
| CG9083 | DRSC04625 | -0.2 | 0.1 | – |
| blw (bellwether) | DRSC04675 | 1 | 1.4 | – |
| Mlp84B (Muscle LIM protein at 84B) | DRSC12596 | -0.1 | -0.1 | – |
| CG15641 | DRSC19677 | -0.4 | -0.6 | – |
| CG11380 | DRSC18632 | -0.2 | 0.3 | – |
| CG8500 | DRSC16434 | -0.3 | -0.6 | – |
| sstn (stepping stone) | DRSC10753 | -0.1 | -0.3 | – |
| Adar (Adenosine deaminase acting on RNA) | DRSC17725 | -0.1 | -0.8 | – |
| sun (stunted) | DRSC20140 | 0.5 | 1.3 | – |
| CG8117 | DRSC20082 | -0.4 | 0 | – |
| bgcn (benign gonial cell neoplasm) | DRSC04062 | -0.3 | -0.4 | – |
| bgcn (benign gonial cell neoplasm) | DRSC04063 | -0.4 | -0.4 | – |
| CG14153 | DRSC10155 | -0.3 | -0.2 | – |
| Cpr67B (Cuticular protein 67B) | DRSC10373 | -0.4 | -0.3 | – |
| Obp50e (Odorant-binding protein 50e) | DRSC06434 | -0.4 | 0 | – |
| AMPKalpha (AMP-activated protein kinase alpha subunit) | DRSC18714 | -0.6 | -0.3 | – |
| su(r) (suppressor of rudimentary) | DRSC18705 | -0.4 | -0.1 | – |
| AIMP1 (aaRS-interacting multifunctional protein 1) | DRSC07118 | -0.4 | -0.4 | – |
| l(3)04053 (lethal (3) 04053) | DRSC11640 | -0.3 | -0.5 | 0.2 |
| slf (schlaff) | DRSC00583 | -0.2 | 0.6 | – |
| CG17600 | DRSC20638 | -0.1 | -0.3 | – |
| CG17600 | DRSC20640 | 0.2 | -0.3 | – |
| mthl2 (methuselah-like 2) | DRSC10287 | -0.4 | 0.7 | – |
| Cyp6a19 (Cytochrome P450 6a19) | DRSC07379 | -0.2 | -0.3 | – |
| mahj (mahjong) | DRSC04053 | 1.1 | 2.2 | – |

An excerpt from above, reduced to “z-score, replicate 1”:
CG15641 [DRSC19677] = -0.4
CG11380 [DRSC18632] = -0.2
CG8500 [DRSC16434] = -0.3
sstn (stepping stone) [DRSC10753] = -0.1
Adar (Adenosine deaminase acting on RNA) [DRSC17725] = -0.1
sun (stunted) [DRSC20140] = 0.5
CG8117 [DRSC20082] = -0.4
bgcn (benign gonial cell neoplasm) [DRSC04062] = -0.3

More records:
| Gene | amplicon | z-score, replicate 1 | z-score, replicate 2 | z-score, replicate 3 |
| --- | --- | --- | --- | --- |
| CG31321 | DRSC13028 | 0.5 | -0.1 | – |
| Rh4 (Rhodopsin 4) | DRSC11268 | -0.3 | 0 | – |
| CG15236 | DRSC04970 | -0.3 | -0.5 | – |
| CG43317 | DRSC15000 | -0.4 | -0.5 | – |
| Ir94c (Ionotropic receptor 94c) | DRSC13539 | -0.4 | 0.1 | – |
| GluRS-m (Glutamyl-tRNA synthetase, mitochondrial) | DRSC10431 | -0.2 | -0.2 | – |
| CG31926 | DRSC00295 | -0.4 | -0.2 | – |
| CG32280 | DRSC08024 | -0.1 | 0.2 | – |
| Ubx (Ultrabithorax) | DRSC16891 | -0.5 | -0.5 | -0.4 |
| CG10137 | DRSC02014 | -0.3 | 0.4 | – |
| CG10137 | DRSC02015 | -0.4 | 0 | – |
| Cda5 (Chitin deacetylase-like 5) | DRSC00003 | -0.2 | 0 | 0.1 |
| Cda5 (Chitin deacetylase-like 5) | DRSC00529 | -0.2 | -0.1 | – |
| Cda5 (Chitin deacetylase-like 5) | DRSC00532 | -0.3 | -0.3 | – |
| CG15712 | DRSC06583 | -0.2 | -0.5 | – |
| Cf2 (Chorion factor 2) | DRSC00744 | 1.1 | 1.4 | – |
| CG9471 | DRSC16499 | -0.4 | -0.6 | – |
| CG2816 | DRSC00539 | -0.4 | -0.3 | – |
| eIF1A (eukaryotic translation initiation factor 1A) | DRSC16937 | 3.4 | 4.7 | – |
| CG7214 | DRSC03028 | -0.3 | -0.2 | – |
| sn (singed) | DRSC18834 | -0.3 | -0.5 | – |
| CG33080 | DRSC18080 | -0.2 | -0.5 | – |
| CG33080 | DRSC18081 | -0.2 | -0.6 | – |
| CG33080 | DRSC18285 | -0.2 | 0 | – |
| CG3119 | DRSC00569 | 0.1 | 0.8 | – |
| CG8736 | DRSC07255 | -0.3 | -0.4 | – |
| CG15141 | DRSC02441 | 0 | -0.2 | – |
| CG15141 | DRSC02442 | 0.1 | 0 | – |
| CG17734 | DRSC15256 | -0.4 | -0.7 | 0 |
| CG12481 | DRSC19461 | -0.3 | 0 | – |
| SmydA-7 (SET and MYND domain containing, arthropod-specific, member 7) | DRSC07340 | -0.2 | -0.2 | – |
| Tehao | DRSC03449 | -0.2 | -0.1 | – |
| ste24c + CG30461 | DRSC05639 | 0 | -0.3 | – |
| ste24c + CG30461 | DRSC07316 | -0.4 | -0.6 | – |
| brp (bruchpilot) | DRSC06245 | -0.3 | -0.6 | – |
| brp (bruchpilot) | DRSC06246 | -0.3 | -0.4 | – |
| brp (bruchpilot) | DRSC06801 | -0.3 | -0.4 | – |
| CG12104 | DRSC08254 | -0.3 | -0.4 | – |
| CG34230 | DRSC05317 | -0.1 | 0 | – |
| CG4462 | DRSC15583 | -0.2 | -1 | – |
| bif (bifocal) | DRSC18901 | -0.3 | -0.3 | – |
| bif (bifocal) | DRSC20313 | -0.1 | -0.3 | – |
| CG42271 | DRSC19809 | -0.5 | -0.7 | – |
| upSET | DRSC11051 | 2.7 | 3.8 | – |
| Jon65Aiii (Jonah 65Aiii) | DRSC10649 | -0.3 | -0.5 | – |
| CG16976 (retired record) | DRSC08262 | -0.1 | 0.5 | – |
| CG16976 (retired record) | DRSC08499 | -0.3 | 0.4 | – |
| Hnf4 (Hepatocyte nuclear factor 4) | DRSC01032 | -0.3 | -0.4 | – |
| Hnf4 (Hepatocyte nuclear factor 4) | DRSC03344 | -0.9 | -0.1 | – |
| CG34398 | DRSC01052 | -0.2 | 0.2 | – |
| CG34398 | DRSC02510 | 0.9 | 1.4 | – |
| CG34398 | DRSC02511 | -0.1 | 0.3 | – |
| CG34398 | DRSC03228 | 0 | 0.1 | – |
| CG10479 | DRSC09733 | -0.1 | 0 | – |
